# Test results published in the supplement of paper PMC6411743.
# Protein sequences, listed by entry. Tags and fused reporters are not part of them. Lines headed by an entry give the natural chain unless they say otherwise; changes in a name come on top.
# UniProt Q96DF8: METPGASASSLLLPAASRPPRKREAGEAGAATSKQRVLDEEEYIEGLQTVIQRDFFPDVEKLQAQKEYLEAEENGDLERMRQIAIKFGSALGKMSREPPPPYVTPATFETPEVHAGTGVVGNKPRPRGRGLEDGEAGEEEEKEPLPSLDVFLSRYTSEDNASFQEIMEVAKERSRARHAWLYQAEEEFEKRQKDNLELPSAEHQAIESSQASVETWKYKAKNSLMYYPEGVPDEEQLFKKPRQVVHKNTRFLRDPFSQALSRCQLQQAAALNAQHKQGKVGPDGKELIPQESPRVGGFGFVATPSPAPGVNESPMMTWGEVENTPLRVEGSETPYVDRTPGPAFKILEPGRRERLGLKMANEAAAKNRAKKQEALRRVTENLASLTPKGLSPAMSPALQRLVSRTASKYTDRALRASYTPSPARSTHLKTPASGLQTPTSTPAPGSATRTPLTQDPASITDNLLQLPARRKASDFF
# UniProt Q96HY6: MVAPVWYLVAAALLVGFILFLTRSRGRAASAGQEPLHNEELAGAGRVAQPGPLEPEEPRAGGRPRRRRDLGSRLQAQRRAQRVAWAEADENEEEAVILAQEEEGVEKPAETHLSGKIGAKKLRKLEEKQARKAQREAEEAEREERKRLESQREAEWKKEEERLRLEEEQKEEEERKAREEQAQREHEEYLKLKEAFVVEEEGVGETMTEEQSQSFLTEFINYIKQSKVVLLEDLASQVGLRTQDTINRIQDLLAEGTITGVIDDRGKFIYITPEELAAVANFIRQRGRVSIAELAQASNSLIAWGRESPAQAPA
# UniProt Q96BX8: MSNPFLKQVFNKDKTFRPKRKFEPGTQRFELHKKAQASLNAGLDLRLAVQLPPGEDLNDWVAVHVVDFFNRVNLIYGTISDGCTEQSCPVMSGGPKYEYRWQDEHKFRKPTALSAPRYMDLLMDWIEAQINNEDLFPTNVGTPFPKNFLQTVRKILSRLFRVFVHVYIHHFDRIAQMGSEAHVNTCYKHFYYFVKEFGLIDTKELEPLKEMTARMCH
# ± gives the standard deviation of the averaged measurements. The list shows a part of the results.
# Compound: Nc1nc2c(ncn2[C@@H]2O[C@H](COP(=O)(O)OP(=O)(O)OP(=O)(O)O)[C@@H](O)[C@H]2O)c(=O)[nH]1 [guanosine triphosphate]
# Assay: NP40-soluble protein abundance relative to vehicle (solubility fold change) (ratio); higher = more soluble protein in presence of GTP
# Experimental: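 Solubility proteome profiling in Jurkat crude lysate. Lysate was treated with Mg-GTP (0.1-10 mM) for 10 min at room temperature and 3 min at 37 °C, then solubilised with 0.8% NP40 and benzonase, followed by ultracentrifugation. Proteins were quantified by TMT10 LC-MS/MS; the value is the NP40-soluble abundance relative to the NP40-processed vehicle, from 3 independent experiments.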
target,measurement,setting,value
UniProt Q96BY6-3|Q96BY6,NP40-soluble protein abundance,concentration: 0.1mM,1.06 ± 0.09
same,NP40-soluble protein abundance,concentration: 0.5mM,1.09 ± 0.11
same,NP40-soluble protein abundance,concentration: 1mM,1.02 ± 0.12
same,NP40-soluble protein abundance,concentration: 2mM,1.07 ± 0.14
same,NP40-soluble protein abundance,concentration: 4mM,1.06 ± 0.12
same,NP40-soluble protein abundance,concentration: 6mM,1.05 ± 0.12
same,NP40-soluble protein abundance,concentration: 8mM,1.03 ± 0.12
same,NP40-soluble protein abundance,concentration: 10mM,1.01 ± 0.11
UniProt Q96DF8,NP40-soluble protein abundance,concentration: 0.1mM,0.982 ± 0.042
same,NP40-soluble protein abundance,concentration: 0.5mM,0.979 ± 0.06
same,NP40-soluble protein abundance,concentration: 1mM,1.1 ± 0.096
same,NP40-soluble protein abundance,concentration: 2mM,1.01 ± 0.038
same,NP40-soluble protein abundance,concentration: 4mM,1.06 ± 0.096
same,NP40-soluble protein abundance,concentration: 6mM,1.04 ± 0.022
same,NP40-soluble protein abundance,concentration: 8mM,1.07 ± 0.13
same,NP40-soluble protein abundance,concentration: 10mM,1.14 ± 0.064
UniProt Q96HY6 and related entries,NP40-soluble protein abundance,concentration: 0.1mM,1.12 ± 0.15
same,NP40-soluble protein abundance,concentration: 0.5mM,1.04 ± 0.089
same,NP40-soluble protein abundance,concentration: 1mM,1.06 ± 0.076
same,NP40-soluble protein abundance,concentration: 2mM,1.2 ± 0.17
same,NP40-soluble protein abundance,concentration: 4mM,1.18 ± 0.098
same,NP40-soluble protein abundance,concentration: 6mM,1.17 ± 0.089
same,NP40-soluble protein abundance,concentration: 8mM,1.12 ± 0.15
same,NP40-soluble protein abundance,concentration: 10mM,1.21 ± 0.031
UniProt Q96BX8,NP40-soluble protein abundance,concentration: 0.1mM,1.05 ± 0.06
same,NP40-soluble protein abundance,concentration: 0.5mM,0.957 ± 0.094
same,NP40-soluble protein abundance,concentration: 1mM,0.913 ± 0.051
same,NP40-soluble protein abundance,concentration: 2mM,0.917 ± 0.083
same,NP40-soluble protein abundance,concentration: 4mM,0.913 ± 0.059
same,NP40-soluble protein abundance,concentration: 6mM,0.886 ± 0.052
same,NP40-soluble protein abundance,concentration: 8mM,0.864 ± 0.1
same,NP40-soluble protein abundance,concentration: 10mM,0.828 ± 0.14
EAF1 (UniProt Q96JC9),NP40-soluble protein abundance,concentration: 0.1mM,0.827 ± 0.036
same,NP40-soluble protein abundance,concentration: 0.5mM,0.865 ± 0.067
same,NP40-soluble protein abundance,concentration: 1mM,0.848 ± 0.071
same,NP40-soluble protein abundance,concentration: 2mM,0.873 ± 0.07
same,NP40-soluble protein abundance,concentration: 4mM,0.812 ± 0.048
same,NP40-soluble protein abundance,concentration: 6mM,0.858 ± 0.067
same,NP40-soluble protein abundance,concentration: 8mM,0.844 ± 0.078
same,NP40-soluble protein abundance,concentration: 10mM,0.896 ± 0.06

# A different layout for some results above:
target	measurement	setting	value
UniProt Q96BY6-3|Q96BY6	NP40-soluble protein abundance	concentration: 0.1mM	1.06 ± 0.09
same	NP40-soluble protein abundance	concentration: 6mM	1.05 ± 0.12
same	NP40-soluble protein abundance	concentration: 8mM	1.03 ± 0.12
same	NP40-soluble protein abundance	concentration: 10mM	1.01 ± 0.11
UniProt Q96DF8	NP40-soluble protein abundance	concentration: 0.1mM	0.982 ± 0.042
same	NP40-soluble protein abundance	concentration: 4mM	1.06 ± 0.096
UniProt Q96HY6 and related entries	NP40-soluble protein abundance	concentration: 4mM	1.18 ± 0.098
UniProt Q96BX8	NP40-soluble protein abundance	concentration: 4mM	0.913 ± 0.059
same	NP40-soluble protein abundance	concentration: 10mM	0.828 ± 0.14
EAF1 (UniProt Q96JC9)	NP40-soluble protein abundance	concentration: 2mM	0.873 ± 0.07
same	NP40-soluble protein abundance	concentration: 6mM	0.858 ± 0.067
